Assay results from PubChem BioAssay AID1053143 (Broad Institute, 2014).
Among all 3,400 compounds or so, about 120 (3.5%) were called active. This list was built around the results that the source calls inconclusive (neither active nor inactive); the mix of calls is not that of the screen. No rule for the calls is given here.

Test: viability loss in HepG2 hepatoma cells – cell-based, ATP luminescence, cherry-pick, activator set 2, cytotoxicity control, dose response (AID 1053143)
Conditions: CellTiter-Glo ATP luminescence, 72 h; at 26 µM (top of the series)

Row | Structure (SMILES) | activity change, negative = cytotoxicity
1 | CC1CCc2sc(C(=O)NC3CCCCC3)cc2C1 (configuration not stated) | inactive: -10.7%
2 | O=C(NCCCn1ccnc1)c1cc(-c2ccccc2)on1 | inconclusive: -33%
